No constants are given. Whether binding was seen depends on the method and setting. Some entries that bind do so weakly or less than the wild type. Sequences can lack the tags named with a protein.
Molecular target: T1, Zinc finger CCCH domain-containing protein 13 (ZC3H13) (1106–1668), N-Twin-Strep-tag-ZC3H13 (1106–1668) (human) (UniProt Q5T200)
T1 sequence: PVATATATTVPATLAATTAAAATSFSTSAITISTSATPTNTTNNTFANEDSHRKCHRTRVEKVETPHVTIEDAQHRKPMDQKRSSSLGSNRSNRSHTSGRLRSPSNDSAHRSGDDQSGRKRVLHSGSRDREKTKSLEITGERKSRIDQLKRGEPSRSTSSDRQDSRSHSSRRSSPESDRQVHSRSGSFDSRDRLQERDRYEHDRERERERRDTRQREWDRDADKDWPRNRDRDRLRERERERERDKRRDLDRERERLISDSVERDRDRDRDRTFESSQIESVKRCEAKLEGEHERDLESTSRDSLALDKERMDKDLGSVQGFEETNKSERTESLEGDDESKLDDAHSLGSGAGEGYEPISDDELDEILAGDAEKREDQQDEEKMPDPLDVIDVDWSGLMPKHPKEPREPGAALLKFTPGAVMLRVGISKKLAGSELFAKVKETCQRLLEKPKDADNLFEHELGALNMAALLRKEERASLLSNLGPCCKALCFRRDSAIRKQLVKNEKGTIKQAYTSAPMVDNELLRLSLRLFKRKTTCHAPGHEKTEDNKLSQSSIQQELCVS
Experiment: cross-linking; EDC XL-MS of purified MACOM with MAC (Fig. S4e): 5 mM EDC, 50 mM HEPES pH 7.2, 100 mM KCl, 5% glycerol, 25 °C, 3 h; both purified

Chains of the proteins cited; added tags and fusions are not shown.
UniProt Q86U44: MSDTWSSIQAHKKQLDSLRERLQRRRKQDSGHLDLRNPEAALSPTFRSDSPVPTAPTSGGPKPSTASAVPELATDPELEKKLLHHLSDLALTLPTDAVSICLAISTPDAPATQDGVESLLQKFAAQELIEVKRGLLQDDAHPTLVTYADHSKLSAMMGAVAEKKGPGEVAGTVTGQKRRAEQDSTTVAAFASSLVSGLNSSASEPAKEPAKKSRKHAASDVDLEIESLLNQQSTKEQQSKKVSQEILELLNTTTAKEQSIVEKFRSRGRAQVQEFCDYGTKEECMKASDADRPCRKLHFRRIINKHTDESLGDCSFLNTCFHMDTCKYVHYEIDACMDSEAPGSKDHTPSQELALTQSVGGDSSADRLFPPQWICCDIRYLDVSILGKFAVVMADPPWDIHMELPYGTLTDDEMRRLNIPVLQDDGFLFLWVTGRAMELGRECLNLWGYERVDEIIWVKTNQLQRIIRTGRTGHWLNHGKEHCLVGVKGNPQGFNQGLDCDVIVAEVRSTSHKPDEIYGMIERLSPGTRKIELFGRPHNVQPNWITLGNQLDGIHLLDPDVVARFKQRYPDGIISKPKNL

methyltransferase-like 3 (METTL3), full length (from UniProt Q86U44 1-580) (enzyme)
binding: binds

Source: paper PMC9652331
